According to patent publication US20210206855A1 (ADAGENE, published 2021):
Changes are numbered by the printed parent chain. Like-named read-outs stand apart in the source and are kept apart here. These are yes or no findings as the source states them, for the method shown. Some entries that bind do so weakly or less than the wild type. Values belong to the molecule of their own block, whether it stands above or below them.

Chains of the proteins cited; added tags and fusions are not shown. Residues count along the entry.
UniProt P42081, residues 24-247: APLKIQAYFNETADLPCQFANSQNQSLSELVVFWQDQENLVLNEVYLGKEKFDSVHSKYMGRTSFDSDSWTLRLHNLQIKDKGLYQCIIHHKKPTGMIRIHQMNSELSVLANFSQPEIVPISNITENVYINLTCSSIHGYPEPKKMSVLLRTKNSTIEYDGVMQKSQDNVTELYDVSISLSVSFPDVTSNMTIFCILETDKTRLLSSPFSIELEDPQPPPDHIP

Tests used:
[1] = target: mouse CTLA4 displayed on yeast (mouse) (UniProt P09793); assay: yeast display, flow cytometry
I108L [2] = target: T1, I108L; assay: flow cytometry on yeast displaying CTLA4; Normalized FACS Bound, human WT = 1
T1 sequence (CTLA4 displayed on yeast): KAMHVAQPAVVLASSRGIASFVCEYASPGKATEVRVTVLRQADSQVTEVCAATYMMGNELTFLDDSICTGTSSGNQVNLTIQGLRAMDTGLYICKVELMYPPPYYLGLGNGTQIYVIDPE

I108M [3] = target: T2, I108M; assay: as above
T2 sequence (CTLA4 displayed on yeast): T1 sequence (CTLA4 displayed on yeast) with L108M

L106D [4] = target: T3, L106D; assay: as above
T3 sequence (CTLA4 displayed on yeast): T1 sequence (CTLA4 displayed on yeast) with L106D, L108I

L106V [5] = target: T4, L106V; assay: as above
T4 sequence (CTLA4 displayed on yeast): T1 sequence (CTLA4 displayed on yeast) with L106V, L108I

MH3IQ [6] = target: T5, MH3IQ; assay: as above
T5 sequence (CTLA4 displayed on yeast): T1 sequence (CTLA4 displayed on yeast) with M3I, H4Q, L108I

Y105F [7] = target: T6, Y105F; assay: as above
T6 sequence (CTLA4 displayed on yeast): T1 sequence (CTLA4 displayed on yeast) with Y105F, L108I

Y105L [8] = target: T7, Y105L; assay: as above
T7 sequence (CTLA4 displayed on yeast): T1 sequence (CTLA4 displayed on yeast) with Y105L, L108I

[9] = target: mouse CTLA4 displayed on yeast (mouse) (UniProt P09793); assay: as above
I108L [10] = target: T1, I108L; assay: as above; remark: listed apart in the source
I108M [11] = target: T2, I108M; assay: as above; remark: listed apart in the source
L106D [12] = target: T3, L106D; assay: as above; remark: listed apart in the source
L106V [13] = target: T4, L106V; assay: as above; remark: listed apart in the source
MH3IQ [14] = target: T5, MH3IQ; assay: as above; remark: listed apart in the source
Y105F [15] = target: T6, Y105F; assay: as above; remark: listed apart in the source
Y105L [16] = target: T7, Y105L; assay: as above; remark: listed apart in the source
[17] = target: mouse CTLA4 displayed on yeast (mouse) (UniProt P09793); assay: as above; remark: listed apart in the source

binding [1]: binds
binding (I108L [2]): binds
binding (I108M [3]): binds
binding (L106D [4]): binds
binding (L106V [5]): binds
binding (MH3IQ [6]): binds
binding (Y105F [7]): binds
binding (Y105L [8]): binds
binding [9]: binds
Molecule: human CD80 (recombinant) (from UniProt P33681 35-242) (ligand)

binding [1]: binds
binding (I108L [2]): binds
binding (I108M [3]): binds
binding (L106D [4]): binds
binding (L106V [5]): binds
binding (MH3IQ [6]): binds
binding (Y105F [7]): binds
binding (Y105L [8]): binds
binding [9]: binds
Molecule: human CD86 (epitope mapping reagent) (from UniProt P42081 24-247) (ligand)

binding [1]: binds
binding (I108L [10]): binds
binding (I108M [11]): binds
binding (L106D [12]): binds
binding (L106V [13]): binds
binding (MH3IQ [14]): binds
binding (Y105F [15]): binds
binding (Y105L [16]): binds
binding [17]: binds
B1: mouse CD86 (ligand, UniProt P42082 24-244, looked up)
chain: VSVETQAYFNGTAYLPCPFTKAQNISLSELVVFWQDQQKLVLYEHYLGTEKLDSVNAKYLGRTSFDRNNWTLRLHNVQIKDMGSYDCFIQKKPPTGSIILQQTLTELSVIANFSEPEIKLAQNVTGNSGINLTCTSKQGHPKPKKMYFLITNSTNEYGDNMQISQDNVTELFSISNSLSLSFPDGVWHMTVVCVLETESMKISSKPLNFTQEFPSPQTYWK
